Test results reported in PubChem BioAssay AID190 (DTP/NCI, 2004).
The list does not hold the whole screen: it gathers tests that were run many times, whatever their T/C, doses with no T/C, and many T/C values between a quarter and a half above the control. Other doses and runs of a compound stand elsewhere. T/C is the treated group as % of the vehicle group. Some doses have a count of surviving animals in place of a T/C: the source files T/C as zero there, which appears to mark a toxic dose or a test without result, not a measured value. Some doses without a T/C left all or most animals alive at the check, yet need not have been tolerated: survival well below the control is almost never listed, so the zero probably covers shortened survival too. Counts of survivors are from the toxicity check (mostly the fifth day) where no day follows; animals may have died later. Schedules are NCI's codes, read here as Q, the interval in days (D) or hours (H), X, the number of doses. Some entries hold several experiments; the results are listed from low to high. Counts like (3×) stand for listed records that agree. For survival time, the PubChem record calls one and a half times the control and up active, and a quarter to a half above the control has no call in these data; cut-offs in other NCI protocols can differ. Some T/C values are followed by the survivors on the day toxicity was checked, most often the fifth; without a count, all were alive then.

Tested on: AKR/Lw mice, AKR lymphoma ip, median survival T/C
Assay: NCI In Vivo Anticancer Drug Screen. Data for tumor model Lymphoma AKR (Transplanted) (intraperitoneal) in AKR/Lw mice
Conditions: T/C endpoint: median survival time, vehicle: saline, higher T/C = longer survival
Method: The antitumor activity of compounds was measured in mice bearing transplantable tumors. Survival or tumor size were measured and the results are expressed as the measurement made in the treated group (T) divided by the measurement made in the vehicle treated control group (C). The tumor model used in this assay is Lymphoma AKR (Transplanted) (intraperitoneal) in AKR/Lw mice

[1] = dose: 75.0 mg/kg/injection, schedule: Q01DX009 (ip)
[2] = dose: 300.0 mg/kg/injection, schedule: Q01DX001 (ip)
[3] = dose: 400.0 mg/kg/injection, schedule: Q01DX001 (ip)

In the case of `O=P1(N(CCCl)CCCl)NCCCO1` (stereo not drawn), the T/C [1] is reported as 115 % of control, the survivor count [1] is reported as 7 of 10, 8 of 10, 10 of 10 (2×) and the T/C (dose: 100.0 mg/kg/injection, schedule: Q01DX001 (ip), evaluated on day 5) is reported as 172 and 211 % of control. For the same compound, the T/C (dose: 100.0 mg/kg/injection, schedule: Q01DX001 (ip), evaluated on day 7) was 299 % of control, the T/C (dose: 100.0 mg/kg/injection, schedule: Q01DX001 (ip), evaluated on day 9) was 145 % of control and the T/C (dose: 100.0 mg/kg/injection, schedule: Q01DX001 (ip), evaluated on day 11) was 135 % of control. For the same compound, the T/C (dose: 100.0 mg/kg/injection, schedule: Q01DX001 (ip), evaluated on day 13) was 147 % of control, the T/C (dose: 100.0 mg/kg/injection, schedule: Q01DX001 (ip), evaluated on day 45) was 150, 166, 177, 182, 186 % of control and the T/C (dose: 100.0 mg/kg/injection, schedule: Q01DX001 (ip), evaluated on day 60) was 113 [9 of 10 alive], 123, 135, 137 [9 of 10 alive], 139, 140, 147, 165, 170, 172, 177, 181, 191, 205, 208, 211, 222, 236 % of control. The survivor count (dose: 100.0 mg/kg/injection, schedule: Q01DX001 (ip)) was 10 of 10, the survivor count (dose: 100.0 mg/kg/injection, schedule: Q01DX009 (ip)) was 10 of 10 and the T/C (dose: 100.0 mg/kg/injection, schedule: Q04DX003 (ip), evaluated on day 45) was 168 % of control [9 of 10 alive]. The T/C (dose: 100.0 mg/kg/injection, schedule: Q04DX003 (ip), evaluated on day 60) was 86, 91, 102, 107, 165 % of control, the survivor count (dose: 100.0 mg/kg/injection, schedule: Q04DX003 (ip)) was 10 of 10 and the T/C (dose: 100.0 mg/kg/injection, schedule: Q07DX003 (ip)) was 139, 140, 153, 218 (2×), 221 % of control. For the same compound, the T/C (dose: 125.0 mg/kg/injection, schedule: Q04DX003 (ip), evaluated on day 45) was 135, 161, 225, 236 % of control, the T/C (dose: 125.0 mg/kg/injection, schedule: Q04DX003 (ip), evaluated on day 60) was 188 % of control and the T/C (dose: 150.0 mg/kg/injection, schedule: Q01DX001 (ip), evaluated on day 5) was 144 and 212 % of control. The T/C (dose: 150.0 mg/kg/injection, schedule: Q01DX001 (ip), evaluated on day 7) was 301 % of control, the T/C (dose: 150.0 mg/kg/injection, schedule: Q01DX001 (ip), evaluated on day 9) was 251 % of control and the T/C (dose: 150.0 mg/kg/injection, schedule: Q01DX001 (ip), evaluated on day 11) was 143 % of control. For the same compound, the T/C (dose: 150.0 mg/kg/injection, schedule: Q01DX001 (ip), evaluated on day 45) was 168 % of control, the T/C (dose: 150.0 mg/kg/injection, schedule: Q01DX001 (ip), evaluated on day 60) was 125, 130 [8 of 10 alive], 144, 168 [8 of 10 alive], 197, 212 % of control and the survivor count (dose: 150.0 mg/kg/injection, schedule: Q01DX001 (ip)) was 10 of 10. The survivor count (dose: 150.0 mg/kg/injection, schedule: Q04DX003 (ip)) was 8 of 10, the T/C (dose: 200.0 mg/kg/injection, schedule: Q01DX001 (ip), evaluated on day 5) was 195 % of control and the T/C (dose: 200.0 mg/kg/injection, schedule: Q01DX001 (ip), evaluated on day 7) was 301 % of control. For the same compound, the T/C (dose: 200.0 mg/kg/injection, schedule: Q01DX001 (ip), evaluated on day 9) was 300 % of control, the T/C (dose: 200.0 mg/kg/injection, schedule: Q01DX001 (ip), evaluated on day 11) was 210 % of control and the T/C (dose: 200.0 mg/kg/injection, schedule: Q01DX001 (ip), evaluated on day 13) was 195 % of control. The T/C (dose: 200.0 mg/kg/injection, schedule: Q01DX001 (ip), evaluated on day 45) was 150 [9 of 10 alive], 166, 202 [8 of 10 alive], 264 % of control, the T/C (dose: 200.0 mg/kg/injection, schedule: Q01DX001 (ip), evaluated on day 60) was 104, 125, 143 [9 of 10 alive], 152, 154, 164, 180, 184, 195, 214, 222, 231 % of control and the survivor count (dose: 200.0 mg/kg/injection, schedule: Q01DX001 (ip)) was 8 of 10, 9 of 10, 10 of 10. For the same compound, the survivor count (dose: 200.0 mg/kg/injection, schedule: Q04DX003 (ip)) was 6 of 10, 8 of 10, 9 of 10, 10 of 10, the survivor count (dose: 200.0 mg/kg/injection, schedule: Q07DX003 (ip)) was 10 of 10 and the T/C (dose: 200.0 mg/kg/injection, schedule: Q14DX003 (ip)) was 127 % of control. The T/C (dose: 250.0 mg/kg/injection, schedule: Q04DX003 (ip), evaluated on day 45) was 114 % of control, the T/C (dose: 250.0 mg/kg/injection, schedule: Q04DX003 (ip), evaluated on day 60) was 91 % of control and the survivor count (dose: 250.0 mg/kg/injection, schedule: Q04DX003 (ip)) was 8 of 10 and 10 of 10. For the same compound, the T/C [2] was 102, 145, 145 [9 of 10 alive], 260 % of control, the survivor count [2] was 9 of 10 and the survivor count (dose: 300.0 mg/kg/injection, schedule: Q04DX003 (ip)) was 9 of 10 and 10 of 10. For the same compound, the T/C [3] was 211 [9 of 10 alive] and 247 % of control [9 of 10 alive], the survivor count [3] was 8 of 10 and the survivor count (dose: 400.0 mg/kg/injection, schedule: Q01DX009 (ip)) was 4 of 10. For the same compound, the survivor count (dose: 500.0 mg/kg/injection, schedule: Q01DX001 (ip)) was 6 of 10, the survivor count (dose: 600.0 mg/kg/injection, schedule: Q01DX001 (ip)) was 2 of 10 and the survivor count (dose: 800.0 mg/kg/injection, schedule: Q01DX001 (ip)) was 2 of 10.
